Measured values as given in the supplement of paper PMC6411743.
± gives the standard deviation of the averaged measurements. This is a selection; strong and weak results do not stand in their true shares. Small differences around the control level are noise.

Protein sequences, listed by entry. Tags and fused reporters are not part of them. Lines headed by an entry give the natural chain unless they say otherwise; changes in a name come on top.
UniProt P19474, whole entry: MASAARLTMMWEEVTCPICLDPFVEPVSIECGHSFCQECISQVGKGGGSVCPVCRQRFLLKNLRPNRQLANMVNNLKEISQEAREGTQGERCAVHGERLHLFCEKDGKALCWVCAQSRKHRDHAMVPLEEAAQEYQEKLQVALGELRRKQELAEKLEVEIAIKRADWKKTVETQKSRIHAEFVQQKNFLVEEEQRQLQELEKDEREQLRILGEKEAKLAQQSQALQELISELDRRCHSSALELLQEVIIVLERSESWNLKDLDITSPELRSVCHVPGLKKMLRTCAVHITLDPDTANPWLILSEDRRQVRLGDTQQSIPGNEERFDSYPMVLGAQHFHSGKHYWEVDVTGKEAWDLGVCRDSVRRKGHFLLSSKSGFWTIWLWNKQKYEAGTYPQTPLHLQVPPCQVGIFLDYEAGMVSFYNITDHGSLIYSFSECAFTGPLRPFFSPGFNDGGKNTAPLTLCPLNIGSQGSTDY
UniProt P20936: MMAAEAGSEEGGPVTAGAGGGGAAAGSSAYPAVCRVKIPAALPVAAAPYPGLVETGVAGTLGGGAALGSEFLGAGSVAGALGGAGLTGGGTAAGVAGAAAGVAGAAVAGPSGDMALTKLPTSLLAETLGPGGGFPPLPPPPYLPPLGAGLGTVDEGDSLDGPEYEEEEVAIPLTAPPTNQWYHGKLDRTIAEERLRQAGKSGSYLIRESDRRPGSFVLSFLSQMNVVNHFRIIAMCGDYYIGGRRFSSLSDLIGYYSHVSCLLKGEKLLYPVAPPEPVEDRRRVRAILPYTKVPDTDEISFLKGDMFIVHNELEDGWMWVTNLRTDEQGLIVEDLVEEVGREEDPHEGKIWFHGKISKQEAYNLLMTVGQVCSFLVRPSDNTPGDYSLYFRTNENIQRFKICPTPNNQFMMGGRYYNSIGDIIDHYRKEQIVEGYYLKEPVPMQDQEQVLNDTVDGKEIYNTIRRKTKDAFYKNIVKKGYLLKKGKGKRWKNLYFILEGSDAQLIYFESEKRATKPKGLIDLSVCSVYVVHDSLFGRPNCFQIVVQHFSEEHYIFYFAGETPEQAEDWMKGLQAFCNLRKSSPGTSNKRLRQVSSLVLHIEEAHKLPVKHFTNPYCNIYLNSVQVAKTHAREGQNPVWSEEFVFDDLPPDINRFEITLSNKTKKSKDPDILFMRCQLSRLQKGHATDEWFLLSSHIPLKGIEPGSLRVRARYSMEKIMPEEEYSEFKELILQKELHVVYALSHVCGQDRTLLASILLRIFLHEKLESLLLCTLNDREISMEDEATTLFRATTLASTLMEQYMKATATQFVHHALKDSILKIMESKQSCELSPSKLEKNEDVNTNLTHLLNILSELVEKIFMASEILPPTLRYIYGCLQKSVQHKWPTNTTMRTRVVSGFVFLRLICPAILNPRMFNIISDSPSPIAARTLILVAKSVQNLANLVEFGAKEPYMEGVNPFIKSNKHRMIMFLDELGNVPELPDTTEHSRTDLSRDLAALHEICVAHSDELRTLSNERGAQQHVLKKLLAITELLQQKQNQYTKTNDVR
UniProt P21281, whole entry: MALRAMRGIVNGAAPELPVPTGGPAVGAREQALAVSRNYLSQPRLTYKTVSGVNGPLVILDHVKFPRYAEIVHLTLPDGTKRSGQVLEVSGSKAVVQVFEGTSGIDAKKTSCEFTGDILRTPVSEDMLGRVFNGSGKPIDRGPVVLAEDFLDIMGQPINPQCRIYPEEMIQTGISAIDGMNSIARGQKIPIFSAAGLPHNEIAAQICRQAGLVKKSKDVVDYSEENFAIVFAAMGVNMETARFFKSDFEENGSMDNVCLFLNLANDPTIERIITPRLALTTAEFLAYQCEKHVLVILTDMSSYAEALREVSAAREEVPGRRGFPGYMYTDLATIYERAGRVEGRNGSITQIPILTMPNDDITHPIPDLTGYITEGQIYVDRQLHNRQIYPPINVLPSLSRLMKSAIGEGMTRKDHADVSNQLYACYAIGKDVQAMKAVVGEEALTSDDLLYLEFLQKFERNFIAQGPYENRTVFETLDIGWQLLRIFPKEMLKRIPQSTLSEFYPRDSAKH
UniProt P19419: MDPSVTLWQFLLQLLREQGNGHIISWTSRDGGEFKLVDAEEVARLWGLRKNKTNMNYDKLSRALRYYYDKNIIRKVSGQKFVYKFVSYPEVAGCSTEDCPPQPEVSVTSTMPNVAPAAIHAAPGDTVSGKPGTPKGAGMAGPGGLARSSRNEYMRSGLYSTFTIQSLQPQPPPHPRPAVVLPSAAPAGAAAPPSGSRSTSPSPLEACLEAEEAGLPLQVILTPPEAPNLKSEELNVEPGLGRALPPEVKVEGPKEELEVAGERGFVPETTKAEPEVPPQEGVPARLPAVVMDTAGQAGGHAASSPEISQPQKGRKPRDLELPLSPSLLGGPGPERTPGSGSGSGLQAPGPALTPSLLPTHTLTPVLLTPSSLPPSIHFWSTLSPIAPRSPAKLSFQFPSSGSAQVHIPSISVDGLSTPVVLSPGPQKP
UniProt P35240: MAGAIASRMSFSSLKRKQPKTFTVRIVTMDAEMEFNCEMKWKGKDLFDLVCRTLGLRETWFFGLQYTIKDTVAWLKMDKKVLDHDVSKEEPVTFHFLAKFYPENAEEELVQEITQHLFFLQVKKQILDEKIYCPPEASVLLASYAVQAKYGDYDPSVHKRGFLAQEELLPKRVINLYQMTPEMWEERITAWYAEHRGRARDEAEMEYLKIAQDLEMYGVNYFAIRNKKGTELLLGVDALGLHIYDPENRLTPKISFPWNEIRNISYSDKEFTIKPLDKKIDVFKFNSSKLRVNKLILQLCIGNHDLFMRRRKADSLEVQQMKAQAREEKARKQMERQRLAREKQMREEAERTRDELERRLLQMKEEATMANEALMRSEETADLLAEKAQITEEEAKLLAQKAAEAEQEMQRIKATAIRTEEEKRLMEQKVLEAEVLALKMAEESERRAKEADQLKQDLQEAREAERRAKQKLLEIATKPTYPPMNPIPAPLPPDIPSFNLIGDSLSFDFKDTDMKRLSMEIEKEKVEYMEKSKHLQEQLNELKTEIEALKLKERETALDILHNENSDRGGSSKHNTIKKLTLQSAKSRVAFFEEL
UniProt P31785: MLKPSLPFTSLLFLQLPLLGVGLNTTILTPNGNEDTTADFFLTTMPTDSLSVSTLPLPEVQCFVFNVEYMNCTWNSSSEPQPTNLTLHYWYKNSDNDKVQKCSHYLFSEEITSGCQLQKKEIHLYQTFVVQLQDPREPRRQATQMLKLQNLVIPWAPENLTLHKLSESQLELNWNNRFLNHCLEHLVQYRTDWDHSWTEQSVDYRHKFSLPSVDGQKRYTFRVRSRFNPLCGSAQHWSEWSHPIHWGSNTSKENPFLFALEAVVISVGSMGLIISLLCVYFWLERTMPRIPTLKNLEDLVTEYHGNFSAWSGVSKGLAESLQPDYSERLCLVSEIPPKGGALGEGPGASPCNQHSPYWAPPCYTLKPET
UniProt P35244: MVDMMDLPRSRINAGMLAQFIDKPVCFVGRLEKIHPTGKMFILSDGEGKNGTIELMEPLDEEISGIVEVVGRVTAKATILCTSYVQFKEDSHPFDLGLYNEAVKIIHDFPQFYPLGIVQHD
UniProt P25788: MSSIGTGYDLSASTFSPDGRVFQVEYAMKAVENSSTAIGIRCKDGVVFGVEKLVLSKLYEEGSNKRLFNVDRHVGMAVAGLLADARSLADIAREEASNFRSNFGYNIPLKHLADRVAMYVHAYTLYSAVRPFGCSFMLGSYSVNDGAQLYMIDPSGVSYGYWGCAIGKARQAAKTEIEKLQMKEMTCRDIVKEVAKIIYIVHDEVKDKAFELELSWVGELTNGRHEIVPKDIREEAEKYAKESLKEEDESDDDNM
UniProt P17050: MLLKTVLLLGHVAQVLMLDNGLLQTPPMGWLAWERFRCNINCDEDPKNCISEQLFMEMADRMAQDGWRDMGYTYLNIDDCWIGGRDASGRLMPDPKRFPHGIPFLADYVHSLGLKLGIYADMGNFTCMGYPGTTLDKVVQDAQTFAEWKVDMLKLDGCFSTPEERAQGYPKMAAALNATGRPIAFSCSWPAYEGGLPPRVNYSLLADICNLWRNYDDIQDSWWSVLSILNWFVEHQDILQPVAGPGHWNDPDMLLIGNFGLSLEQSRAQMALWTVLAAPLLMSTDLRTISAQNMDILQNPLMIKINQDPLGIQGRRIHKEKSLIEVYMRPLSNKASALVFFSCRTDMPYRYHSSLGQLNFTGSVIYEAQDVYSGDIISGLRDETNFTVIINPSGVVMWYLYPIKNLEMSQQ
UniProt P17010: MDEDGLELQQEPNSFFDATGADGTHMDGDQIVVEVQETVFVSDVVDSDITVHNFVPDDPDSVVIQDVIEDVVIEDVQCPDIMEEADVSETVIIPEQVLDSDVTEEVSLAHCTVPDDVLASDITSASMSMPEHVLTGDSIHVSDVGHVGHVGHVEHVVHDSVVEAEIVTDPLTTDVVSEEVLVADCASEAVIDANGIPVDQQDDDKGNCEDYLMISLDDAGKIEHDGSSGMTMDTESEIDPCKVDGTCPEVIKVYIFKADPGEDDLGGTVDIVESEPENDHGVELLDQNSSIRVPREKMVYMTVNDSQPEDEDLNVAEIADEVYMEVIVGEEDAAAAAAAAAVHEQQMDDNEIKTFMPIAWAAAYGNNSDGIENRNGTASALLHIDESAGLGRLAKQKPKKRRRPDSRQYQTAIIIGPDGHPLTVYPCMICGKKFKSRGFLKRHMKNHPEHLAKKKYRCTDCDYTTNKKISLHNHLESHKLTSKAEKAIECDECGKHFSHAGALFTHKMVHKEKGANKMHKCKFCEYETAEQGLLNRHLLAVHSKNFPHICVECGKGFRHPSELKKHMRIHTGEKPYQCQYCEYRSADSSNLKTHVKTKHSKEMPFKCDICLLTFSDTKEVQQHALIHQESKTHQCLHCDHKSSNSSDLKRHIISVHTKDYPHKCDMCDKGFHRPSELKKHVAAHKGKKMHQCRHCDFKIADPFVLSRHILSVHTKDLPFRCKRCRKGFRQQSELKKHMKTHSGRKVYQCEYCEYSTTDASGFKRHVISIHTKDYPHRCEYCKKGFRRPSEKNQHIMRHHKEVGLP
UniProt P17098: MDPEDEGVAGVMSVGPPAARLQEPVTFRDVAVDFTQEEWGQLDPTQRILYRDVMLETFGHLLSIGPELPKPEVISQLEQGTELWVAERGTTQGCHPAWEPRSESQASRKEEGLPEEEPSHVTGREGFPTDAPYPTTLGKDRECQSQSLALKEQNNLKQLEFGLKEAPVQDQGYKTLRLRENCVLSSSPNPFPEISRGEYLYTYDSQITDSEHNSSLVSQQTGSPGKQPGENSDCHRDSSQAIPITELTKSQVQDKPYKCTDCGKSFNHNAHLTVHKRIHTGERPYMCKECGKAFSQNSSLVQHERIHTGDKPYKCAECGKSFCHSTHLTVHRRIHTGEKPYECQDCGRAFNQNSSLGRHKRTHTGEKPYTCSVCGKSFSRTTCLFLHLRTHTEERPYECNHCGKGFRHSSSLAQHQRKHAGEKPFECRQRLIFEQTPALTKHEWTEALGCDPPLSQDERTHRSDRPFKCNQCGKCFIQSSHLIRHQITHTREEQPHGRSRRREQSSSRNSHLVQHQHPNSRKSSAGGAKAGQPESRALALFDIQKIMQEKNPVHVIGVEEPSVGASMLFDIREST
UniProt P22830: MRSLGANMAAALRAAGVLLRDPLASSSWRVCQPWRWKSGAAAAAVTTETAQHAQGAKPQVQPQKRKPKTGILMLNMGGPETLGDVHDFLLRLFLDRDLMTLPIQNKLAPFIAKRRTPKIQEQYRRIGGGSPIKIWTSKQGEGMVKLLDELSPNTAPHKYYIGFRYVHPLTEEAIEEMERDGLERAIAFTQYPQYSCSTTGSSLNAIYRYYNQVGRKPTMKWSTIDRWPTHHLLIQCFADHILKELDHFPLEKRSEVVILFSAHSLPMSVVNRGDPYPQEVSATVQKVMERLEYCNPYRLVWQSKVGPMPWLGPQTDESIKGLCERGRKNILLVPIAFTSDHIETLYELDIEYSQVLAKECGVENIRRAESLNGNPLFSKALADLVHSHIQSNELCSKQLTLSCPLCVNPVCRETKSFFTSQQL
UniProt P29016: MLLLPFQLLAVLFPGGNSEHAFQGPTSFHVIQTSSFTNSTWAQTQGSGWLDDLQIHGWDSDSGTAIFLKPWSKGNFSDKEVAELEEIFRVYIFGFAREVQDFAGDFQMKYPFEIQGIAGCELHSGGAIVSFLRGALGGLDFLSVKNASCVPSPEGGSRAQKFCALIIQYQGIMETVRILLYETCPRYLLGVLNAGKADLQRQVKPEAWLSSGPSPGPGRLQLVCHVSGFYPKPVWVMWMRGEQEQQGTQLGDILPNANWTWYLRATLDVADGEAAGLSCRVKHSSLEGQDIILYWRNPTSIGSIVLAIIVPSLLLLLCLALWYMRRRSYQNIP
UniProt P20336: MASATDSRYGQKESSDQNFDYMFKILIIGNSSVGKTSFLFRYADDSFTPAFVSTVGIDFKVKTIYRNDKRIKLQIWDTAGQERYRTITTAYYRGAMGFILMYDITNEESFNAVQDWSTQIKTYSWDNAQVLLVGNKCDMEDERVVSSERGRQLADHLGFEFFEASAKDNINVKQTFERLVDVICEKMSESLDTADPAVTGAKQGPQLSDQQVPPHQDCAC

Compound: Nc1ncnc2c1ncn2[C@@H]1O[C@H](COP(=O)(O)OP(=O)(O)OP(=O)(O)O)[C@@H](O)[C@H]1O [adenosine triphosphate]
Experiment: NP40-soluble protein abundance relative to vehicle (solubility fold change) (ratio); higher = more soluble protein in presence of ATP
Outline: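 Jurkat crude lysate (Dounce-homogenised) was treated with eight concentrations from 0.1 to 10 mM for 10 min at room temperature, then 3 min at 37 °C. It was solubilised with 0.8% NP40 and benzonase (60 min, 4 °C) and ultracentrifuged, and the supernatant was TMT-labelled for LC-MS/MS. Intensities were vsn-normalised, and the value is the fold change against the NP40-processed vehicle per replicate, from three independent experiments.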

Target	NP40-soluble protein abundance (concentration: 0.1mM)	NP40-soluble protein abundance (concentration: 0.5mM)
UniProt P28799 and related entries	1 ± 0.047	0.981 ± 0.038
DDX5 (UniProt P17844)	1.04 ± 0.067	1.08 ± 0.092
UniProt P32121 and related entries	0.998 ± 0.074	1.02 ± 0.031
UniProt P32780 and related entries	0.971 ± 0.031	1.02 ± 0.049
GTF2E1 (UniProt P29083)	1.01 ± 0.025	1.04 ± 0.063
PFKL (UniProt P17858)	1.02 ± 0.039	1.05 ± 0.056
PHB (UniProt P35232)	0.97 ± 0.042	0.981 ± 0.041
UniProt P20020 and related entries	0.994 ± 0.067	1.04 ± 0.092
CORO1A (UniProt P31146)	0.999 ± 0.034	1.07 ± 0.061
GSTM3 (UniProt P21266)	0.978 ± 0.069	0.955 ± 0.031
RPA1 (UniProt P27694)	1.06 ± 0.093	1.05 ± 0.048
UniProt P29375 and related entries	1.1 ± 0.19	1.09 ± 0.042
PSMB9 (UniProt P28065)	0.99 ± 0.024	0.963 ± 0.055
GRK5 (UniProt P34947)	1.21 ± 0.024	1.19 ± 0.15
MYH9 (UniProt P35579)	0.959 ± 0.06	1.05 ± 0.12
UniProt P22033	1.02 ± 0.046	1.03 ± 0.047
TRIM21 (UniProt P19474)	1.04 ± 0.057	1.03 ± 0.053
UniProt P20936 and related entries	1.02 ± 0.031	0.997 ± 0.048
ATP6V1B2 (UniProt P21281)	1.03 ± 0.037	1.03 ± 0.026
UniProt P25445 and related entries	0.922 ± 0.059	0.891 ± 0.038
FKBP2 (UniProt P26885)	0.927 ± 0.018	0.92 ± 0.09
UniProt P16989 and related entries	0.934 ± 0.057	0.938 ± 0.018
DGKA (UniProt P23743)	1.1 ± 0.089	1.17 ± 0.11
SDHA (UniProt P31040)	1.03 ± 0.064	1.05 ± 0.059

Target	NP40-soluble protein abundance (concentration: 0.1mM)	NP40-soluble protein abundance (concentration: 0.5mM)
CCND3 (UniProt P30281)	0.941 ± 0.016	0.912 ± 0.01
TMEM11 (UniProt P17152)	1.05 ± 0.14	0.96 ± 0.15
UniProt P23771 and related entries	0.946 ± 0.015	0.884 ± 0.018
PRKAR1B (UniProt P31321)	1.05 ± 0.046	1.01 ± 0.096
IGFBP2 (UniProt P18065)	0.981 ± 0.032	0.973 ± 0.024
UniProt P23469 and related entries	1.17 ± 0.056	1.17 ± 0.11
UniProt P28702 and related entries	0.986 ± 0.047	0.9643 ± 0.0066
LRPAP1 (UniProt P30533)	0.949 ± 0.064	0.943 ± 0.03
PTPN1 (UniProt P18031)	1.04 ± 0.063	1.02 ± 0.063
PPIB (UniProt P23284)	0.966 ± 0.015	1.02 ± 0.04
BLVRB (UniProt P30043)	1.01 ± 0.032	0.9895 ± 0.0052
MAT2A (UniProt P31153)	1 ± 0.052	1.01 ± 0.056
UniProt P23634-6	1.08 ± 0.12	1.06 ± 0.068
ELK1 (UniProt P19419)	0.896 ± 0.17	0.868 ± 0.23
CPT2 (UniProt P23786)	1.05 ± 0.089	1.05 ± 0.07
PRKAR2B (UniProt P31323)	1.03 ± 0.021	1.04 ± 0.052
M6PR (UniProt P20645)	0.982 ± 0.014	0.911 ± 0.029
BCKDHB (UniProt P21953)	1.16 ± 0.17	1.08 ± 0.044
AKAP5 (UniProt P24588)	0.931 ± 0.025	1.06 ± 0.04
RFC2 (UniProt P35250)	1.11 ± 0.032	1.2 ± 0.049
UniProt P28907	0.907 ± 0.069	0.895 ± 0.089
CSRP1 (UniProt P21291)	1.01 ± 0.016	1.02 ± 0.016
UniProt P23396 and related entries	0.899 ± 0.086	0.857 ± 0.1
UniProt P18206 and related entries	0.963 ± 0.019	0.982 ± 0.028

Target	NP40-soluble protein abundance (concentration: 0.1mM)	NP40-soluble protein abundance (concentration: 0.5mM)
UniProt P35240 and related entries	1.02 ± 0.047	1.03 ± 0.045
MCM7 (UniProt P33993)	1 ± 0.039	1 ± 0.033
HMGB2 (UniProt P26583)	0.897 ± 0.17	0.845 ± 0.22
ACO1 (UniProt P21399)	1.05 ± 0.082	1.03 ± 0.065
UniProt P27361	1 ± 0.034	1.03 ± 0.031
UniProt P32856 and related entries	0.99 ± 0.014	1.03 ± 0.03
P30042 (UniProt P0DPI2)	1.03 ± 0.043	1.06 ± 0.05
ICAM3 (UniProt P32942)	0.895 ± 0.013	0.906 ± 0.054
UniProt P33316 and related entries	0.999 ± 0.021	0.992 ± 0.022
UniProt P20340 and related entries	1.09 ± 0.11	1.08 ± 0.071
KIF5B (UniProt P33176)	0.998 ± 0.023	1.01 ± 0.065
UniProt P20701 and related entries	0.9678 ± 0.0053	0.958 ± 0.015
CFL1 (UniProt P23528)	0.983 ± 0.037	0.94 ± 0.055
PRKCH (UniProt P24723)	1.05 ± 0.029	1.07 ± 0.043
CA8 (UniProt P35219)	1.08 ± 0.13	1.09 ± 0.097
ATP6V1C1 (UniProt P21283)	1.02 ± 0.048	1.02 ± 0.042
UniProt P18615 and related entries	1.001 ± 0.0076	1.04 ± 0.085
IL2RG (UniProt P31785)	0.958 ± 0.043	0.917 ± 0.05
WARS (UniProt P23381)	1.02 ± 0.078	1.04 ± 0.067
UniProt P32969 and related entries	0.928 ± 0.11	0.919 ± 0.17
UniProt P17612	1 ± 0.076	1.05 ± 0.032
DNAJB1 (UniProt P25685)	1.03 ± 0.077	1.04 ± 0.074
UniProt P25098	1.03 ± 0.052	1.01 ± 0.039
MCM3 (UniProt P25205)	1 ± 0.039	0.985 ± 0.04

Target	NP40-soluble protein abundance (concentration: 0.1mM)	NP40-soluble protein abundance (concentration: 0.5mM)
VDAC1 (UniProt P21796)	0.977 ± 0.043	1.01 ± 0.02
RPA3 (UniProt P35244)	0.971 ± 0.013	0.964 ± 0.099
UniProt P25788 and related entries	0.941 ± 0.065	0.948 ± 0.043
UQCRC2 (UniProt P22695)	0.987 ± 0.032	0.958 ± 0.025
GART (UniProt P22102)	1 ± 0.046	1 ± 0.016
NAGA (UniProt P17050)	0.983 ± 0.05	0.974 ± 0.016
TCEA1 (UniProt P23193)	0.988 ± 0.027	0.973 ± 0.016
EEF1B2 (UniProt P24534)	0.78 ± 0.2	0.762 ± 0.21
MGAT1 (UniProt P26572)	1.02 ± 0.025	1.104 ± 0.0015
OSBP (UniProt P22059)	1.05 ± 0.065	1.03 ± 0.063
HSPA4 (UniProt P34932)	1 ± 0.035	1.01 ± 0.047
UniProt P26038 and related entries	1.04 ± 0.032	1.01 ± 0.14
ATP2A2 (UniProt P16615)	1.06 ± 0.052	1.06 ± 0.044
UniProt P22694-2|P22694-3|P22694	1.04 ± 0.035	1.1 ± 0.06
UniProt P17812	1.03 ± 0.082	1.02 ± 0.057
UniProt P23610	0.931 ± 0.056	0.914 ± 0.059
FAH (UniProt P16930)	1.01 ± 0.071	1.02 ± 0.069
UniProt P28066	0.994 ± 0.022	0.981 ± 0.012
UniProt P24539 and related entries	0.856 ± 0.15	0.839 ± 0.15
UniProt P29590 and related entries	0.96 ± 0.024	0.936 ± 0.037
UniProt P17010 and related entries	1.02 ± 0.13	0.936 ± 0.023
GCH1 (UniProt P30793)	0.994 ± 0.031	0.9504 ± 0.0056
ZKSCAN1 (UniProt P17029)	0.936 ± 0.079	0.96 ± 0.084
UniProt P18433 and related entries	1.11 ± 0.069	1.04 ± 0.046

Target	NP40-soluble protein abundance (concentration: 0.1mM)	NP40-soluble protein abundance (concentration: 0.5mM)
PPIF (UniProt P30405)	0.989 ± 0.013	0.994 ± 0.032
POLR2E (UniProt P19388)	1.05 ± 0.052	1.05 ± 0.019
ZNF8 (UniProt P17098)	1.03 ± 0.045	1.01 ± 0.066
UniProt P19174-2|P19174	1.06 ± 0.07	1.01 ± 0.074
UniProt P27105 and related entries	1.13 ± 0.16	1.16 ± 0.069
RPL22 (UniProt P35268)	1.02 ± 0.023	0.99 ± 0.11
PSMB6 (UniProt P28072)	0.969 ± 0.031	0.928 ± 0.04
RBL1 (UniProt P28749)	1.04 ± 0.11	0.997 ± 0.098
UniProt P19525	1.07 ± 0.082	1.11 ± 0.056
ZNF24 (UniProt P17028)	1.02 ± 0.023	1.03 ± 0.049
TFE3 (UniProt P19532)	0.966 ± 0.099	0.982 ± 0.12
UniProt P20339 and related entries	0.972 ± 0.082	0.976 ± 0.026
ALDH4A1 (UniProt P30038)	0.997 ± 0.037	1.01 ± 0.022
CMPK1 (UniProt P30085)	0.987 ± 0.015	1.01 ± 0.048
UniProt P22830 and related entries	1.07 ± 0.063	1.05 ± 0.081
PRDX2 (UniProt P32119)	0.988 ± 0.099	0.984 ± 0.14
NDUFB7 (UniProt P17568)	0.909 ± 0.11	0.885 ± 0.025
UniProt P30519 and related entries	0.963 ± 0.054	0.925 ± 0.049
UniProt P29016	0.888 ± 0.093	0.869 ± 0.13
RAB3A (UniProt P20336)	0.9773 ± 0.0078	0.951 ± 0.091
UniProt P30520	1.02 ± 0.056	1.01 ± 0.053
PSMB8 (UniProt P28062)	0.98 ± 0.049	0.9754 ± 0.0026
PSMB1 (UniProt P20618)	0.836 ± 0.31	0.99 ± 0.057
UniProt P29350 and related entries	1.05 ± 0.076	1.06 ± 0.07

An excerpt of the results above, for reference:
Target	NP40-soluble protein abundance (concentration: 0.1mM)	NP40-soluble protein abundance (concentration: 0.5mM)
RBL1 (UniProt P28749)	1.04 ± 0.11	0.997 ± 0.098
UniProt P19525	1.07 ± 0.082	1.11 ± 0.056
ZNF24 (UniProt P17028)	1.02 ± 0.023	1.03 ± 0.049
TFE3 (UniProt P19532)	0.966 ± 0.099	0.982 ± 0.12
UniProt P20339 and related entries	0.972 ± 0.082	0.976 ± 0.026
ALDH4A1 (UniProt P30038)	0.997 ± 0.037	1.01 ± 0.022
CMPK1 (UniProt P30085)	0.987 ± 0.015	1.01 ± 0.048
